Measurements published in PMC8231170, “Biphenylalkoxyamine Derivatives–Histamine H3 Receptor Ligands with Butyrylcholinesterase Inhibitory Activity” (Molecules, 2021).

Test system: mouse model of scopolamine-induced memory impairments
Experiment: step-through Passive Avoidance Task
Type: in vivo
Conditions: scopolamine 1 mg/kg i.p. alone, mice, 24 h after acquisition
Procedure: This procedure was created for studying short-term memory as well as long-term memory. The paradigm requires the rodents to behave contrary to their innate preference for dark areas and for avoiding bright ones.
The experiments were carried out on adult male Albino Swiss mice (CD-1, 18–25 g). […] Experimental groups consisted of 6–12 animals, all the animals were used only once and they were killed by cervical dislocation immediately after the assay. Behavioral measures were scored by trained observers, which were blind to experimental conditions. Treatment of laboratory animals in the present study was in full accordance with the respective Polish regulations.
Control animals (negative control) were given an appropriate amount of vehicle (1% aqueous solution of Tween 80; i.p.) 30 min before the test.
The task was performed according to the method described previously. Briefly, the test was conducted in the apparatus with two compartments (LE872, Bioseb, France). The illuminated white compartment (20 cm × 21 cm × 20 cm, 1000 lx) was separated by an automated sliding gate with the smaller dark compartment (7.3 cm × 7.5 cm × 14 cm, 10 lx) equipped with an electric grid floor. […] The latency time to cross through the gate between the compartments was measured.

## CN1[C@@H]2C[C@@H](OC(=O)[C@H](CO)c3ccccc3)C[C@H]1[C@@H]1O[C@@H]12 [Scopolamine, scopolamine, reference compound]
  latency time, retention trial: 35.8 ± 7.8 s
